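Over two days of treatment, Rh30 pediatric muscle-tumor cells were checked for survival using a luminescent ATP-based viability readout.
Compounds ran as dilution series reaching 46 µM at the top, from about 0.78 nM for the 11-point MIPE set.
The number is the fitted AC50 potency for loss of cell viability; a lower value means a more potent cytotoxic effect.
Calls come from curve class and an activity score: actives score 40 to 100, inconclusives 1 to 39 (weak, partial, poorly fitted or top-dose-only curves), and inactives score 0.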

Values are in nM.
Every entry below has the call inconclusive.
Only part of the assay is shown, chiefly results filed as inconclusive.
Potencies fitted to partial, single-point or poorly fitting curves are rough.
Some entries filed as inconclusive have a full curve.
Activity scores are not listed here.

{"compound": "COC(=O)N[C@H](C(=O)N1CCC[C@@H]1c1ncc(-c2ccc(-c3ccc(-c4cnc([C@@H]5CCCN5C(=O)[C@@H](NC(=O)OC)C(C)C)[nH]4)cc3)cc2)[nH]1)C(C)C", "Potency (nM)": "20930", "curve as filed": "cytotoxic, partial curve"}
{"compound": "O=C(NCc1ccccc1)c1csc(Nc2ccncn2)n1", "Potency (nM)": "18654", "curve as filed": "cytotoxic, partial curve"}
{"compound": "O=C(c1ccccc1)c1ccc2n1CCC2C(=O)O", "stereo": "stereo unspecified", "Potency (nM)": "18654", "curve as filed": "cytotoxic, partial curve"}
{"compound": "CC(C)=CC[C@@H](O)C1=CC(=O)c2c(O)ccc(O)c2C1=O", "Potency (nM)": "23484", "curve as filed": "cytotoxic, single point"}
{"compound": "Oc1ccc([C@@H]2Oc3ccc(O)cc3[C@@H]3CCC[C@@H]32)cc1", "Potency (nM)": "16626", "curve as filed": "cytotoxic, partial curve"}
{"compound": "Cc1ccc(N)cc1O", "Potency (nM)": "48557", "curve as filed": "cytotoxic, single point"}
{"compound": "OCCC#Cc1nc(-c2ccc(F)cc2)c(-c2ccncc2)n1CCCc1ccccc1", "Potency (nM)": "16626", "curve as filed": "cytotoxic, partial curve"}
{"compound": "O=c1ccn([C@@H]2O[C@H](CO)[C@H](O)[C@@H]2F)c(=O)[nH]1", "Potency (nM)": "18654", "curve as filed": "cytotoxic, partial curve"}
{"compound": "O=C(Nc1cc(Cl)cc2c1[nH]c1cnccc12)c1cccnc1", "Potency (nM)": "18654", "curve as filed": "cytotoxic, partial curve"}
{"compound": "CCOC(=O)[C@@H](N)Cc1ccc(-c2cc(O[C@H](c3ccc(Cl)cc3-n3ccc(C)n3)C(F)(F)F)nc(N)n2)cc1", "Potency (nM)": "20930", "curve as filed": "cytotoxic, partial curve"}
{"compound": "CC(C)(C)c1[nH]cnc1C=c1[nH]c(=O)c(=Cc2ccccc2)[nH]c1=O", "Potency (nM)": "24100", "curve as filed": "cytotoxic, partial curve"}
{"compound": "CN(C)Cc1cccc(N=C(c2ccccc2)c2c(O)[nH]c3cc(C(=O)N(C)C)ccc23)c1", "Potency (nM)": "26350", "curve as filed": "cytotoxic, single point"}
{"compound": "O=c1cc(N2CCOCC2)oc2c(-c3cccc4c3sc3ccccc34)cccc12", "Potency (nM)": "18654", "curve as filed": "cytotoxic, partial curve"}
{"compound": "O=C(Nc1cccc(Br)c1)c1cccc(S(=O)(=O)N2CCCCCC2)c1", "Potency (nM)": "18654", "curve as filed": "cytotoxic, partial curve"}
{"compound": "C[C@@H]1O[C@@H](O[C@@H]2C=C3CC[C@@H]4[C@@H](CC[C@]5(C)[C@H](c6ccc(=O)oc6)CC[C@@]45O)[C@@]3(C)CC2)[C@H](O)[C@H](O)[C@H]1O", "Potency (nM)": "83.3", "curve as filed": "cytotoxic, full curve"}
{"compound": "Cc1c(-c2ccc(O)cc2)n(Cc2ccc(OCCN3CCCCCC3)cc2)c2ccc(O)cc12", "Potency (nM)": "26608", "curve as filed": "cytotoxic, single point"}
{"compound": "CCC(=O)NC[C@H](Cc1ccc(OCCc2nc(-c3ccccc3)oc2C)cc1)NC(C)=CC(=O)c1ccc(C(F)(F)F)cc1", "Potency (nM)": "7427", "curve as filed": "cytotoxic, partial curve, poor fit"}
{"compound": "FC(F)(F)c1ccc(Nc2nc3ccc(Oc4ccnc(-c5ncc(C(F)(F)F)[nH]5)c4)cc3[nH]2)cc1", "Potency (nM)": "3722", "curve as filed": "cytotoxic, partial curve"}
{"compound": "Cc1cc(C2CCCCC2)n(O)c(=O)c1", "Potency (nM)": "7427", "curve as filed": "cytotoxic, full curve"}
{"compound": "C[C@@H](NCCCc1cccc(C(F)(F)F)c1)c1cccc2ccccc12", "Potency (nM)": "16788", "curve as filed": "cytotoxic, single point"}
{"compound": "CC[C@H](CO)Nc1nc(NCc2ccccc2)c2ncn(C(C)C)c2n1", "Potency (nM)": "16626", "curve as filed": "cytotoxic, partial curve"}
{"compound": "Cc1[nH]c(C=C2C(=O)Nc3ccc(S(=O)(=O)Cc4c(Cl)cccc4Cl)cc32)c(C)c1C(=O)N1CCC[C@H]1CN1CCCC1", "Potency (nM)": "18654", "curve as filed": "cytotoxic, partial curve"}
{"compound": "COc1cc2c(cc1Cc1cccc(Cl)c1F)c(=O)c(C(=O)O)cn2[C@H](CO)C(C)C", "Potency (nM)": "18654", "curve as filed": "cytotoxic, partial curve"}
{"compound": "CCS(=O)(=O)Nc1ccc2[nH]c(O)c(C(=Nc3ccc(CN4CCCCC4)cc3)c3ccccc3)c2c1", "Potency (nM)": "372.2", "curve as filed": "cytotoxic, full curve"}

3 of the entries, repeated:

compound	Potency (nM)	curve as filed
O=c1cc(N2CCOCC2)oc2c(-c3cccc4c3sc3ccccc34)cccc12	18654	cytotoxic, partial curve
Cc1cc(C2CCCCC2)n(O)c(=O)c1	7427	cytotoxic, full curve
C[C@@H](NCCCc1cccc(C(F)(F)F)c1)c1cccc2ccccc12	16788	cytotoxic, single point

The results are deposited in PubChem (AID1347107; NCATS, 2019).